Target: palivizumab
Experiment: SPR (Biacore 2000), palivizumab immobilized on CM5 chip, 1:1 Langmuir fit, estimate

Binder	Kd [nM]	koff [s⁻¹]	kon [M⁻¹ s⁻¹]
Z02726 (designed binder, Z variant, expressed as a monomer in E. coli; clone from selection round 5) GSSLQVDAKFWKEQQHAFYEILHLPNLTEDQRQAFIASLRKDPSQSARLLAGAKKLDDAQAPKVD	18	0.045	2.6e+06
Z02742 (designed binder, Z variant, expressed as a monomer in E. coli; clone from selection round 5) GSSLQVDAKFWKEQQHAFYEILHLPNLTEGQKHAFIRALRGDPSQSARLLARAKKLDDAQAPKVD	5	0.043	9.6e+06

— US20110144302A1 (Affibody, published 2011)
